The target in this experiment is T1, STAG1 (mouse (endogenous in mESCs)) (UniProt Q9D3E6).
T1 sequence: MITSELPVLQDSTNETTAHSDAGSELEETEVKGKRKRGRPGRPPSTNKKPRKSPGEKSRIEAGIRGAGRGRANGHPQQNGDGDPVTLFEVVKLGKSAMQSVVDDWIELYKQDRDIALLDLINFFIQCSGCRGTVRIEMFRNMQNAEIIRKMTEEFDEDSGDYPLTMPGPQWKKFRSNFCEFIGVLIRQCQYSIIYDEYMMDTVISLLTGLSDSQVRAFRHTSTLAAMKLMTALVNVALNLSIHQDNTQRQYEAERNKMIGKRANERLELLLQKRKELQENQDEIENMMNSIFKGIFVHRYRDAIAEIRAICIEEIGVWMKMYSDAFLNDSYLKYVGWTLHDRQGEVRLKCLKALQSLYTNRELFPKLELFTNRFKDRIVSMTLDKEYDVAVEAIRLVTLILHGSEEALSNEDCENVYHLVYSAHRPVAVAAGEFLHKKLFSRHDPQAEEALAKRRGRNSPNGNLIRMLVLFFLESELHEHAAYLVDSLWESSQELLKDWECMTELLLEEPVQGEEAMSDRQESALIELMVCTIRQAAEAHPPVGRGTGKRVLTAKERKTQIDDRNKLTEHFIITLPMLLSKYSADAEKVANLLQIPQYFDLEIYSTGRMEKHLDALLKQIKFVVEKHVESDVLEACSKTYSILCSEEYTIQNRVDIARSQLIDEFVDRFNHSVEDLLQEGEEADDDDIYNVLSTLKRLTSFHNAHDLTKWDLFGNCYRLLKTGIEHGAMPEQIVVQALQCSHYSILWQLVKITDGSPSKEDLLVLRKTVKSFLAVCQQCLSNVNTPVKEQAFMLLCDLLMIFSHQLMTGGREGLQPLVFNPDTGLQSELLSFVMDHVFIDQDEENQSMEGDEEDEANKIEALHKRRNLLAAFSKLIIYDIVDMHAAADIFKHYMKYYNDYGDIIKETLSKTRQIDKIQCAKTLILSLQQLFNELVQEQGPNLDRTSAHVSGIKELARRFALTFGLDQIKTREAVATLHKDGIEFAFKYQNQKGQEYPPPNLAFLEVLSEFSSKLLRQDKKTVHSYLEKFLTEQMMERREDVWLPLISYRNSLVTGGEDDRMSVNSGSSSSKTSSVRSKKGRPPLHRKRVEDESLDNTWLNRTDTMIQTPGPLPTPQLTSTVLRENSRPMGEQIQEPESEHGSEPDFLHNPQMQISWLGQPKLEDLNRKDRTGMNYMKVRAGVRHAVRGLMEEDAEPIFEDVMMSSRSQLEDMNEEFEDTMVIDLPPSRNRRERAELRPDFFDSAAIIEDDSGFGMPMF
Kind of experiment: co-IP; immunoprecipitation of endogenous STAG1 (IgG as control) from chromatin of wild-type mESCs, western blot for STAG1, NCL and TRIM28.

The chains behind the UniProt entries cited, without tags or fusion partners.
UniProt P09405: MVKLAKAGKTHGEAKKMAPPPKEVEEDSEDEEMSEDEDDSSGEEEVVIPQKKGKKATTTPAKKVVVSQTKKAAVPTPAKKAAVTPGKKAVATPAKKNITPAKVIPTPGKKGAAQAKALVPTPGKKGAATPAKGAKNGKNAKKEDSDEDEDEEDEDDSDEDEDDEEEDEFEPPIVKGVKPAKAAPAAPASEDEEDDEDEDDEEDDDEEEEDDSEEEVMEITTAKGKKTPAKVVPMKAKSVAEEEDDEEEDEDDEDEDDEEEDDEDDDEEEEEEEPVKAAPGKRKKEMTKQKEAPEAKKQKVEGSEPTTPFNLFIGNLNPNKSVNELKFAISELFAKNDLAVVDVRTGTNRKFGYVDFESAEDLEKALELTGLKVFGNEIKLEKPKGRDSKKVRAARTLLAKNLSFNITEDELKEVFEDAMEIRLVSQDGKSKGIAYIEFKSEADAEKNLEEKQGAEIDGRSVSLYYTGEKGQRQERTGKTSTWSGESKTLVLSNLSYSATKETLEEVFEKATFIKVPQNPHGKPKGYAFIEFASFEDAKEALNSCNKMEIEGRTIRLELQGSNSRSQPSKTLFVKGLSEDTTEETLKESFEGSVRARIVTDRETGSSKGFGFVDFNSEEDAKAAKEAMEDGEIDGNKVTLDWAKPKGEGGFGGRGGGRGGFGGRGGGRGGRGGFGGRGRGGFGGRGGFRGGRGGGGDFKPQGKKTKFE

No constants are given. Whether binding was seen depends on the method and setting. In cells and extracts the contact can be indirect. Some binding calls cover weakened binding; strength is not graded here. Tags and fused reporters may be left off the sequences shown.

With Nucleolin (from UniProt P09405 1-707), the binding result was “binds”.
